# Source: the supplement of paper PMC8728848
# This is one part of the list.
# B1: CRT-1 (Homo sapiens), P27797 (protein)
# chain: MLLSVPLLLGLLGLAVAEPAVYFKEQFLDGDGWTSRWIESKHKSDFGKFVLSSGKFYGDEEKDKGLQTSQDARFYALSASFEPFSNKGQTLVVQFTVKHEQNIDCGGGYVKLFPNSLDQTDMHGDSEYNIMFGPDICGPGTKKVHVIFNYKGKNVLINKDIRCKDDEFTHLYTLIVRPDNTYEVKIDNSQVESGSLEDDWDFLPPKKIKDPDASKPEDWDERAKIDDPTDSKPEDWDKPEHIPDPDAKKPEDWDEEMDGEWEPPVIQNPEYKGEWKPRQIDNPDYKGTWIHPEIDNPEYSPDPSIYAYDNFGVLGLDLWQVKSGTIFDNFLITNDEAYAEEFGNETWGVTKAAEKQMKDKQDEEQRLKEEEEDKKRKEEEEAEDKEDDEDKDEDEEDEEDKEEDEEEDVPGQAKDEL
# Legend:
# Assay in all cases: glycan array binding signal (z-score within array); higher = stronger binding
# Conditions in all cases: glycan notation: IUPAC condensed, linker removed
# [1] = molecular target: GlcNAc(b1-6)Gal(b1-4)GlcNAc
# Outline: (§1)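 Glycan array binding is given as a within-array Z-score, which can be read as non-binding when negative. The arrays, 3228 of them, came from the Consortium for Functional Glycomics database and were retained only where the protein sequence was available. Z-scores were averaged across arrays of the same protein sequence at different concentrations or buffers and across linkers.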
# [2] = molecular target: GlcNAc(b1-6)GalNAc
# Outline: as §1
# [3] = molecular target: GlcNAc3Prop(b1-4)GlcNAc
# Outline: as §1
# [4] = molecular target: GlcNAc6S(b1-3)Gal(b1-4)GlcNAc
# Outline: as §1
# [5] = molecular target: Kdn(a2-3)Gal(b1-3)GalNAc
# Outline: as §1
# [6] = molecular target: Kdn(a2-3)Gal(b1-3)GlcNAc
# Outline: as §1
# [7] = molecular target: Kdn(a2-3)Gal(b1-4)Glc
# Outline: as §1
# [8] = molecular target: Kdn(a2-3)Gal(b1-4)GlcNAc
# Outline: as §1
# [9] = molecular target: Kdn(a2-3)Gal(b1-4)[Fuc(a1-3)]GlcNAc
# Outline: as §1
# [10] = molecular target: Kdn(a2-6)Gal(b1-4)GlcNAc
# Outline: as §1
# [11] = molecular target: Man(a1-2)Man(a1-2)Man(a1-3)Man
# Outline: as §1
# [12] = molecular target: Man(a1-2)Man(a1-2)Man(a1-6)[Man(a1-3)]Man
# Outline: as §1
# [13] = molecular target: Man(a1-2)Man(a1-3)Man
# Outline: as §1
# [14] = molecular target: Man(a1-2)Man(a1-3)[Man(a1-2)Man(a1-6)]Man
# Outline: as §1
# [15] = molecular target: Man(a1-2)Man(a1-3)[Man(a1-2)Man(a1-6)]Man(a1-6)[Man(a1-2)Man(a1-2)Man(a1-3)]Man
# Outline: as §1
# [16] = molecular target: Man(a1-2)Man(a1-3)[Man(a1-2)Man(a1-6)]Man(a1-6)[Man(a1-2)Man(a1-2)Man(a1-3)]Man(b1-4)GlcNAc(b1-4)GlcNAc
# Outline: as §1
# [17] = molecular target: Man(a1-2)Man(a1-3)[Man(a1-2)Man(a1-6)]Man(a1-6)[Man(a1-3)[Man(a1-6)]Man(a1-6)]Man(b1-4)GlcNAc(b1-4)GlcNAc
# Outline: as §1
# [18] = molecular target: Man(a1-2)Man(a1-3)[Man(a1-6)]Man(a1-6)[Man(a1-2)Man(a1-3)]Man(b1-4)GlcNAc(b1-4)GlcNAc
# Outline: as §1
# [19] = molecular target: Man(a1-2)Man(a1-6)[Man(a1-3)]Man(a1-6)[Man(a1-2)Man(a1-2)Man(a1-3)]Man
# Outline: as §1
# [20] = molecular target: Man(a1-2)Man(a1-6)[Man(a1-3)]Man(a1-6)[Man(a1-2)Man(a1-2)Man(a1-3)]Man(b1-4)GlcNAc(b1-4)GlcNAc
# Outline: as §1
# [21] = molecular target: Man(a1-3)[Man(a1-6)]Man
# Outline: as §1
# [22] = molecular target: Man(a1-3)[Man(a1-6)]Man(a1-6)[Man(a1-2)Man(a1-3)]Man(b1-4)GlcNAc(b1-4)GlcNAc
# Outline: as §1
# [23] = molecular target: Man(a1-3)[Man(a1-6)]Man(a1-6)[Man(a1-3)]Man
# Outline: as §1
# [24] = molecular target: Man(a1-3)[Man(a1-6)]Man(a1-6)[Man(a1-3)]Man(b1-4)GlcNAc(b1-4)GlcNAc
# Outline: as §1
# [25] = molecular target: Man(a1-3)[Man(a1-6)]Man(b1-4)GlcNAc(b1-4)GlcNAc
# Outline: as §1
# [26] = molecular target: Man(a1-3)[Man(a1-6)]Man(b1-4)GlcNAc(b1-4)[Fuc(a1-6)]GlcNAc
# Outline: as §1
# [27] = molecular target: Man(a1-6)Man
# Outline: as §1
# [28] = molecular target: Man(b1-4)GlcNAc
# Outline: as §1
# [29] = molecular target: MurNAc(b1-4)GlcNAc
# Outline: as §1
# [30] = molecular target: Neu5Ac(a2-3)Gal
# Outline: as §1
# [31] = molecular target: Neu5Ac(a2-3)Gal(b1-3)GalNAc
# Outline: as §1
# [32] = molecular target: Neu5Ac(a2-3)Gal(b1-3)GalNAc(b1-3)Gal(a1-4)Gal(b1-4)Glc
# Outline: as §1
# [33] = molecular target: Neu5Ac(a2-3)Gal(b1-3)GalNAc(b1-4)[Neu5Ac(a2-3)]Gal(b1-4)Glc
# Outline: as §1
# [34] = molecular target: Neu5Ac(a2-3)Gal(b1-3)GalNAc(b1-4)[Neu5Ac(a2-8)Neu5Ac(a2-3)]Gal(b1-4)Glc
# Outline: as §1
# [35] = molecular target: Neu5Ac(a2-3)Gal(b1-3)GalNAc6S
# Outline: as §1
# [36] = molecular target: Neu5Ac(a2-3)Gal(b1-3)GlcNAc
# Outline: as §1
# [37] = molecular target: Neu5Ac(a2-3)Gal(b1-3)GlcNAc(b1-2)Man
# Outline: as §1
# [38] = molecular target: Neu5Ac(a2-3)Gal(b1-3)GlcNAc(b1-2)Man(a1-3)[GlcNAc(b1-4)][Neu5Ac(a2-3)Gal(b1-3)GlcNAc(b1-2)Man(a1-6)]Man(b1-4)GlcNAc(b1-4)GlcNAc
# Outline: as §1
binder,measurement,setting,value
B1,glycan array binding signal (z-score),[1],-0.309
same,glycan array binding signal (z-score),[2],-0.411
same,glycan array binding signal (z-score),[3],-0.345
same,glycan array binding signal (z-score),[4],0.689
same,glycan array binding signal (z-score),[5],0.048
same,glycan array binding signal (z-score),[6],-0.19
same,glycan array binding signal (z-score),[7],-0.238
same,glycan array binding signal (z-score),[8],0.277
same,glycan array binding signal (z-score),[9],0.352
same,glycan array binding signal (z-score),[10],-0.236
same,glycan array binding signal (z-score),[11],-0.312
same,glycan array binding signal (z-score),[12],-0.307
same,glycan array binding signal (z-score),[13],-0.517
same,glycan array binding signal (z-score),[14],-0.932
same,glycan array binding signal (z-score),[15],-0.402
same,glycan array binding signal (z-score),[16],0.02
same,glycan array binding signal (z-score),[17],-0.091
same,glycan array binding signal (z-score),[18],-0.4
same,glycan array binding signal (z-score),[19],-0.219
same,glycan array binding signal (z-score),[20],-0.187
same,glycan array binding signal (z-score),[21],-0.142
same,glycan array binding signal (z-score),[22],0.215
same,glycan array binding signal (z-score),[23],0.061
same,glycan array binding signal (z-score),[24],-0.022
same,glycan array binding signal (z-score),[25],-0.177
same,glycan array binding signal (z-score),[26],0.443
same,glycan array binding signal (z-score),[27],0.065
same,glycan array binding signal (z-score),[28],-0.39
same,glycan array binding signal (z-score),[29],-0.604
same,glycan array binding signal (z-score),[30],-0.226
same,glycan array binding signal (z-score),[31],-0.026
same,glycan array binding signal (z-score),[32],-0.264
same,glycan array binding signal (z-score),[33],0.04
same,glycan array binding signal (z-score),[34],-0.48
same,glycan array binding signal (z-score),[35],-0.642
same,glycan array binding signal (z-score),[36],-0.244
same,glycan array binding signal (z-score),[37],0.718
same,glycan array binding signal (z-score),[38],-0.793

# A stretch taken from the entries so far, as a working copy:
binder,measurement,setting,value
B1,glycan array binding signal (z-score),[34],-0.48
same,glycan array binding signal (z-score),[35],-0.642
